Laboratory results taken from US11339178B2, “Inhibitors of microbial beta-glucuronidase enzymes and uses thereof” (The University of North Carolina at Chapel Hill, priority 2016, dated 2022).
Some results were stated once for a whole list of compounds, not compound by compound.

Sequences of proteins named here, by UniProt entry; tags and fusion partners are left off. A change or cut given only in a name is not applied to a line headed by its entry.
UniProt Q8E0N2: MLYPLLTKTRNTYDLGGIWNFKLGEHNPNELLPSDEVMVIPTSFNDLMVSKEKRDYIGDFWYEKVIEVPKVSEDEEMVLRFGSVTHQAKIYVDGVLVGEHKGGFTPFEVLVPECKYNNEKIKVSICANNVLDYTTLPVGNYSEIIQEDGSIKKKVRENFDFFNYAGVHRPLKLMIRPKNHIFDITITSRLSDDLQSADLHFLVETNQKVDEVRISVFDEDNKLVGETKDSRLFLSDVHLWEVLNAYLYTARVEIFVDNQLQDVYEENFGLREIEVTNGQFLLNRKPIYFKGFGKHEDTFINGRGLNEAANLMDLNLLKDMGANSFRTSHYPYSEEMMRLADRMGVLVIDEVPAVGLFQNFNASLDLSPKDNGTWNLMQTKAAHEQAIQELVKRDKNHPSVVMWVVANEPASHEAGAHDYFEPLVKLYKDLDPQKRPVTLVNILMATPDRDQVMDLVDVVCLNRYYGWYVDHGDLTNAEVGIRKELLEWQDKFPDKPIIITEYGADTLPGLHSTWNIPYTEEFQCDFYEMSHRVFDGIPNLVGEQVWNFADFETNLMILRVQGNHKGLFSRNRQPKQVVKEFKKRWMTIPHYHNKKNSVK

Biological target: S. agalactiae (SaGUS) β-Glucuronidase (Streptococcus agalactiae serotype V, UniProt Q8E0N2)
Assay type: biochemical
Conditions: comparison of analog series

SMILES	potency against SaGUS (in words)
c1ccc(-c2ccc3c(n2)sc2c(N4CCNCC4)nnnc23)cc1 [Compound 22]	reduced potency
c1ccc(-c2ccc3c(n2)sc2c(N4CCNCC4)ncnc23)cc1 [Compound 23]	reduced potency
CNc1nc(N2CCNCC2)c2sc3nc(-c4ccccc4)ccc3c2n1 [Compound 24]	reduced potency
CN(C)c1nc(N2CCNCC2)c2sc3nc(-c4ccccc4)ccc3c2n1 [Compound 25]	reduced potency
OCCNc1nc(N2CCNCC2)c2sc3nc(-c4ccccc4)ccc3c2n1 [Compound 26]	reduced potency
